Results taken from patent US7074925B1, “N-substituted derivatives of 5-oxyiminobarbituric acid” (priority 1998, dated 2006).
At least one structure is not confirmed: it was looked up by name or label, or the drawing left a doubt.

Assay: Antiulcerous action, water immersion stress with immobilization
Format: in vivo, rats
Conditions: 20 mg/kg perorally; grade, control ++
Procedure: Antiulcerous activity of substances was tested on a model of experimental water immersion stress with immobilization. […] After that, gastric mucous membrane was investigated, number and sizes of ulcers were counted, ulceration index was determined (an average sum of ulcer lengths per one animal in a group).

Row | SMILES | hyperemia
1 | O=C1NC(=O)N(C2CCCCC2)C(=O)C1=NO [VIII] | −
2 | O=C1NC(=O)N(c2ccc(F)cc2)C(=O)C1=NO [XXVII] | −
3 | O=C1NC(=O)N(c2cccc(C(F)(F)F)c2)C(=O)C1=NO [XXXII] | +++
